Measured data: PubChem BioAssay AID1259424 (University of Nebraska Medical Center, 2018)
Here is a random part of about 14,000 reagents tested. 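Higher correlation or smaller distance means closer resemblance to KSR1 loss; control wells, including KSR1 knockdowns, recur on many plates.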 The record does not give: the time to read-out.

Assay: 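Find knockdowns that reproduce the expression shifts seen after KSR1 loss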 (primary screen)
Cell system: human HCT116 colon cancer cells
Knock-down reagent: siRNA pool against human genes, 50 nM
Read-out: 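Six signature mRNAs by branched-DNA multiplex assay, scaled to two housekeeping genes and non-targeting median, log2; matched to mean KSR1 knockdown profile by Pearson correlation and euclidean distance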
Reading the numbers: mean correlation with KSR1 profile and KSR1 correlation: higher = expression change more like KSR1 knockdown; mean distance from KSR1 profile: higher = expression change less like KSR1 knockdown

gene symbol	mean correlation with KSR1 profile	mean distance from KSR1 profile	KSR1 correlation, replicate 1	KSR1 correlation, replicate 2	KSR1 correlation, replicate 3
IFT54 (intraflagellar transport 54)	-0.269	1.2	-0.242	-0.134	-0.249
TTLL5 (tubulin tyrosine ligase like 5)	-0.00684	1.44	-0.0361	0.193	-0.121
CLIP4 (CAP-Gly domain containing linker protein family member 4)	0.55	1.65	0.653	0.688	0.127
GK (glycerol kinase)	0.0702	2.37	0.212	0.0476	-0.172
H2AJ (H2A.J histone)	0.0694	2.11	0.264	-0.187	0.385
AMD1 (adenosylmethionine decarboxylase 1)	0.695	2.18	0.699	0.722	0.576
LIPF (lipase F, gastric type)	-0.232	1.23	0.0394	-0.578	-0.331
DEDD (death effector domain containing)	0.916	0.514	0.913	0.774	0.95
ZBED3 (zinc finger BED-type containing 3)	0.754	1.42	0.799	0.46	0.555
SARS1 (seryl-tRNA synthetase 1)	0.178	2.01	0.0679	-0.0177	0.419
PHACTR4 (phosphatase and actin regulator 4)	-0.169	2.89	-0.303	-0.206	-0.0247
EIF3D (eukaryotic translation initiation factor 3 subunit D)	-0.132	2.08	-0.0434	-0.0232	0.0174
PPP2R3B (protein phosphatase 2 regulatory subunit B''beta)	-0.235	2.28	-0.183	-0.359	-0.166
FCRLA (Fc receptor like A)	-0.202	1.45	-0.284	-0.00116	-0.465
PHC1 (polyhomeotic homolog 1)	0.384	1.93	0.304	0.332	0.136
CCL20 (C-C motif chemokine ligand 20)	0.227	1.28	0.384	-0.0173	0.247
SLC12A5	-0.0478	3.4	-0.244	-0.0515	0.335
SECISBP2L (SECIS binding protein 2 like)	-0.00362	2.24	0.0021	-0.0101	0.0673
KCNK16 (potassium two pore domain channel subfamily K member 16)	0.575	3.5	0.373	0.589	0.346
TST (thiosulfate sulfurtransferase)	-0.131	2.17	-0.17	0.00143	-0.258
IRX5 (iroquois homeobox 5)	-0.0628	2.33	-0.171	-0.219	-0.351
EEF1D (eukaryotic translation elongation factor 1 delta)	-0.213	3.01	-0.2	-0.345	-0.24
CDT1 (chromatin licensing and DNA replication factor 1)	-0.854	2.77	-0.878	-0.897	-0.759
TOX4 (TOX high mobility group box family member 4)	-0.245	1.61	-0.347	-0.262	0.0765
SIAE (sialic acid acetylesterase)	-0.658	2.71	-0.462	-0.622	-0.51
ERBB2 (erb-b2 receptor tyrosine kinase 2)	0.657	2.3	0.406	0.699	0.752
PRORP (protein only RNase P catalytic subunit)	0.701	1.02	0.514	0.733	0.692
PLAAT4 (phospholipase A and acyltransferase 4)	-0.185	1.39	-0.233	-0.281	0.134
CZIB (CXXC motif containing zinc binding protein)	-0.508	2.8	-0.584	-0.53	-0.43
KDM4D (lysine demethylase 4D)	-0.784	2.34	-0.78	-0.713	-0.797
DHX30 (DExH-box helicase 30)	-0.815	2.11	-0.563	-0.914	-0.723
UGGT1 (UDP-glucose glycoprotein glucosyltransferase 1)	-0.492	2.59	-0.427	-0.636	-0.432
RAD51 (RAD51 recombinase)	-0.0272	5.05	-0.223	-0.0475	0.0815
CAB39L (calcium binding protein 39 like)	0.237	1.8	0.0569	0.258	0.161

3 entries from above, reformatted:
| gene symbol | mean correlation with KSR1 profile | mean distance from KSR1 profile | KSR1 correlation, replicate 1 | KSR1 correlation, replicate 2 | KSR1 correlation, replicate 3 |
| --- | --- | --- | --- | --- | --- |
| DHX30 (DExH-box helicase 30) | -0.815 | 2.11 | -0.563 | -0.914 | -0.723 |
| UGGT1 (UDP-glucose glycoprotein glucosyltransferase 1) | -0.492 | 2.59 | -0.427 | -0.636 | -0.432 |
| RAD51 (RAD51 recombinase) | -0.0272 | 5.05 | -0.223 | -0.0475 | 0.0815 |
